Results: the supplement of paper PMC12889115
This is one part of the list. These are raw signals, not scaled to a control.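 First-pass screen: polymyxin B was added at a level that permeabilizes the Salmonella outer membrane while sparing the inner membrane. DMSO wells, with and without polymyxin B, defined maximum growth. Because plates differed from one another, each plate's data were ranked separately and the compounds with the lowest OD600 were carried forward as hits.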

Test system: Salmonella enterica serovar Typhimurium SL1344
Experiment: bacterial growth OD600 after 18 h with compound and polymyxin B; higher = more bacterial growth (less inhibition)
Details: 50 µM, Mueller-Hinton broth

**Q.** How did the “bacterial growth OD600” value (polymyxin B 0.75 µg/mL) turn out when `CCS(=O)(=O)Nc1cc(C(=O)NC(C)Cc2ccccn2)c2c(c1)nc(-c1ccccc1)n2C` (centres undefined) was run?
**A.** 0.776

**Q.** With `CCn1c(CN2CCC(O)(Cc3cc(-c4ccccc4)no3)CC2)nc2ccccc21` as the compound, how does the “bacterial growth OD600” value (polymyxin B 1 µg/mL) read?
**A.** 0.875

**Q.** Which “bacterial growth OD600” value (polymyxin B 0.75 µg/mL) does the source give for `CCC(C)CC(=O)N1CCC(C2(c3cccnc3)NC(=O)N(CCc3cccs3)C2=O)CC1` (centres undefined) here?
**A.** 0.885

**Q.** For `CC(C)CCNC(=O)c1cn(CC(C)C)cc(C(=O)N2CCN(C(C)C)CC2)c1=O`, which “bacterial growth OD600” value (polymyxin B 0.75 µg/mL) is on record?
**A.** 0.885

**Q.** For `Cc1ncoc1C(=O)N1CCC(C2CCN(c3ncccn3)CC2)C1` (centres undefined), which “bacterial growth OD600” value (polymyxin B 0.75 µg/mL) is on record?
**A.** 0.817

**Q.** `c1cnc(N2CCC(C3CCN(C4CSCCSC4)C3)CC2)nc1` (centres undefined) was tested. Which “bacterial growth OD600” value (polymyxin B 0.75 µg/mL) did it give?
**A.** 0.794

**Q.** `COc1ccc(CN2CCN(Cc3ccc(O)cc3)CC2CCO)c(F)c1` (centres undefined) was tested. Which “bacterial growth OD600” value (polymyxin B 1 µg/mL) did it give?
**A.** 0.89

**Q.** Which “bacterial growth OD600” value (polymyxin B 1 µg/mL) does the source give for `CCn1ccnc1CN1CCC(CCC(=O)Nc2ccc(OC)cc2OC)CC1` here?
**A.** 1.01

**Q.** For `Cc1ccccc1-n1cc(CN(C)C(=O)CCC2(Cc3ccc(Cl)cc3)CCC(=O)N2)cn1` (centres undefined), which “bacterial growth OD600” value (polymyxin B 0.75 µg/mL) is on record?
**A.** 0.847

**Q.** For `Cc1cc(CN2CCC(N3CCC(C(=O)NCc4cccnc4)CC3)CC2)oc1C`, which “bacterial growth OD600” value (polymyxin B 1 µg/mL) is on record?
**A.** 0.796

**Q.** `CN(C(=O)c1ccco1)C(Cc1ccccc1Cl)C1CCN(Cc2ccccc2F)CC1` (centres undefined) was tested. Which “bacterial growth OD600” value (polymyxin B 0.75 µg/mL) did it give?
**A.** 0.796

**Q.** With `COc1ccc(S(=O)(=O)NCC2CCCN(C(=O)c3ccccc3N(C)C)C2)cc1` (centres undefined) as the compound, how does the “bacterial growth OD600” value (polymyxin B 0.75 µg/mL) read?
**A.** 0.836

**Q.** `COC(=O)CN(C)C(=O)c1ccc(OC2CCN(C(=O)C3CC3)CC2)cc1` was tested. Which “bacterial growth OD600” value (polymyxin B 1 µg/mL) did it give?
**A.** 0.934

**Q.** `CCn1ccnc1CN(C)c1ccc(-c2nc(COC)no2)cn1` was tested. Which “bacterial growth OD600” value (polymyxin B 1 µg/mL) did it give?
**A.** 1.02

**Q.** For `Cc1nc(CC(=O)NCc2cccnc2Oc2ccccc2)cs1`, which “bacterial growth OD600” value (polymyxin B 1 µg/mL) is on record?
**A.** 0.836

**Q.** For `CCN(CC)CC(=O)NC1CCCN(C2CCCCCC2)C1` (centres undefined), which “bacterial growth OD600” value (polymyxin B 0.75 µg/mL) is on record?
**A.** 0.818

**Q.** For `COc1ccc(F)c(CC2(CCC(=O)N3CCC(C(O)c4ccccc4)CC3)CCC(=O)N2)c1` (centres undefined), which “bacterial growth OD600” value (polymyxin B 0.75 µg/mL) is on record?
**A.** 0.813

**Q.** With `COc1cccc(C2CCCCN2Cc2nc(-c3ccc(F)c(OC)c3)oc2C)c1` (centres undefined) as the compound, how does the “bacterial growth OD600” value (polymyxin B 1 µg/mL) read?
**A.** 0.671

**Q.** `COc1ccccc1OCC(=O)NCC1CCCN(Cc2ccc(SC)cc2)C1` (centres undefined) was tested. Which “bacterial growth OD600” value (polymyxin B 1 µg/mL) did it give?
**A.** 0.905
